Test results from article PMC11570952.
These are yes or no findings as the source states them, for the method shown. For some of these results: Binding seen in cells or lysates may run through a third protein. Some results given as binding are weak or reduced against the parent protein; the word gives no strength. For some of these results: Sequences can lack the tags named with a protein.

The chains behind the UniProt entries cited, without tags or fusion partners. Residues count along the entry.
UniProt O60318: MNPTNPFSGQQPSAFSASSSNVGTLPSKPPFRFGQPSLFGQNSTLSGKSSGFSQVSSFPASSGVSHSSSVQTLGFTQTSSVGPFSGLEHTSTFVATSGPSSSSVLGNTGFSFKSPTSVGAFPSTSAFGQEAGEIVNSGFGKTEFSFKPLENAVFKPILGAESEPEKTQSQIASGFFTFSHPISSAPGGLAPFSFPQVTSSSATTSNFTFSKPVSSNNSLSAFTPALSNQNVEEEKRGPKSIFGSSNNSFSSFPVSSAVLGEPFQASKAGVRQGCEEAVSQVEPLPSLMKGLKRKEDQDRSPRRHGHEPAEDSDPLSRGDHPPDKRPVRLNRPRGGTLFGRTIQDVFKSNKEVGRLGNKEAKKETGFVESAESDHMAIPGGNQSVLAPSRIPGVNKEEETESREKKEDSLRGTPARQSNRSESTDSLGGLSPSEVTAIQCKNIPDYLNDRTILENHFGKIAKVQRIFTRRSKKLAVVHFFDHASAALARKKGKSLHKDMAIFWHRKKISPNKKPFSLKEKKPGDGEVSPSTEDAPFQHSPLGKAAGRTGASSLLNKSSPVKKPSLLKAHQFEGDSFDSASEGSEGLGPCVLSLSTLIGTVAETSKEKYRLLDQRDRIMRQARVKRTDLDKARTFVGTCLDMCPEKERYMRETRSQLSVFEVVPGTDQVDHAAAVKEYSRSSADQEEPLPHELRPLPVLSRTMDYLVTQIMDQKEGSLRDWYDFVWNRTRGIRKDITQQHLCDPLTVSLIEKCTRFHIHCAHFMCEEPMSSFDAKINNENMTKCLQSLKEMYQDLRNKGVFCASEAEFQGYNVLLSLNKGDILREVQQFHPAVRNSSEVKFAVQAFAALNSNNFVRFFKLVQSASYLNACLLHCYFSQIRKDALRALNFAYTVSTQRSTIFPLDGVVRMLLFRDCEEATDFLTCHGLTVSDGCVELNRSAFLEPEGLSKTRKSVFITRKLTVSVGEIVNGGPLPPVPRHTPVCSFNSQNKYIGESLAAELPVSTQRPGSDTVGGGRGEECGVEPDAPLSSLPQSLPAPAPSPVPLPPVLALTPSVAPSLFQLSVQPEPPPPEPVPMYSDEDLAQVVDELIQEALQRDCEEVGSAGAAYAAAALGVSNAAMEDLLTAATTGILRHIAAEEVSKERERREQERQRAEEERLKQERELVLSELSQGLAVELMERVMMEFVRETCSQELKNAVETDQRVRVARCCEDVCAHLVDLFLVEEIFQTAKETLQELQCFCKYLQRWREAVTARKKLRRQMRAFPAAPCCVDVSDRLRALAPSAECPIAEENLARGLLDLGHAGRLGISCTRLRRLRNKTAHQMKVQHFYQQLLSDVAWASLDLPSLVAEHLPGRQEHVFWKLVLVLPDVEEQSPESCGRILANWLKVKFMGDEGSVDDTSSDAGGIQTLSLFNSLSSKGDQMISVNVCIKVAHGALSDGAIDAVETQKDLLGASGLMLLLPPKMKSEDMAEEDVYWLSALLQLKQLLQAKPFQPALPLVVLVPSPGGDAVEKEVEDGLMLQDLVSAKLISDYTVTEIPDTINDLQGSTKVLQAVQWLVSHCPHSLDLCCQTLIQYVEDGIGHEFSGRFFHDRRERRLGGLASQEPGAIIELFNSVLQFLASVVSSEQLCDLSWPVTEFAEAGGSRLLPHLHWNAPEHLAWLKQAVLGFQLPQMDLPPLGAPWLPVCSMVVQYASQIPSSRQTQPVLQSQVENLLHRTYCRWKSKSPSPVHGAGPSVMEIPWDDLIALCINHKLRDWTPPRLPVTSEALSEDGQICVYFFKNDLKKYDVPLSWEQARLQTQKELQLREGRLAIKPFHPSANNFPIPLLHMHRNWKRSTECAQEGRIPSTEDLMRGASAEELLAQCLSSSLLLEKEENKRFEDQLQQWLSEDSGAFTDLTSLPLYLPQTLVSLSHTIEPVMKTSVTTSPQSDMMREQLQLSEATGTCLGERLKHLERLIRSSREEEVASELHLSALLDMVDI
UniProt P49790: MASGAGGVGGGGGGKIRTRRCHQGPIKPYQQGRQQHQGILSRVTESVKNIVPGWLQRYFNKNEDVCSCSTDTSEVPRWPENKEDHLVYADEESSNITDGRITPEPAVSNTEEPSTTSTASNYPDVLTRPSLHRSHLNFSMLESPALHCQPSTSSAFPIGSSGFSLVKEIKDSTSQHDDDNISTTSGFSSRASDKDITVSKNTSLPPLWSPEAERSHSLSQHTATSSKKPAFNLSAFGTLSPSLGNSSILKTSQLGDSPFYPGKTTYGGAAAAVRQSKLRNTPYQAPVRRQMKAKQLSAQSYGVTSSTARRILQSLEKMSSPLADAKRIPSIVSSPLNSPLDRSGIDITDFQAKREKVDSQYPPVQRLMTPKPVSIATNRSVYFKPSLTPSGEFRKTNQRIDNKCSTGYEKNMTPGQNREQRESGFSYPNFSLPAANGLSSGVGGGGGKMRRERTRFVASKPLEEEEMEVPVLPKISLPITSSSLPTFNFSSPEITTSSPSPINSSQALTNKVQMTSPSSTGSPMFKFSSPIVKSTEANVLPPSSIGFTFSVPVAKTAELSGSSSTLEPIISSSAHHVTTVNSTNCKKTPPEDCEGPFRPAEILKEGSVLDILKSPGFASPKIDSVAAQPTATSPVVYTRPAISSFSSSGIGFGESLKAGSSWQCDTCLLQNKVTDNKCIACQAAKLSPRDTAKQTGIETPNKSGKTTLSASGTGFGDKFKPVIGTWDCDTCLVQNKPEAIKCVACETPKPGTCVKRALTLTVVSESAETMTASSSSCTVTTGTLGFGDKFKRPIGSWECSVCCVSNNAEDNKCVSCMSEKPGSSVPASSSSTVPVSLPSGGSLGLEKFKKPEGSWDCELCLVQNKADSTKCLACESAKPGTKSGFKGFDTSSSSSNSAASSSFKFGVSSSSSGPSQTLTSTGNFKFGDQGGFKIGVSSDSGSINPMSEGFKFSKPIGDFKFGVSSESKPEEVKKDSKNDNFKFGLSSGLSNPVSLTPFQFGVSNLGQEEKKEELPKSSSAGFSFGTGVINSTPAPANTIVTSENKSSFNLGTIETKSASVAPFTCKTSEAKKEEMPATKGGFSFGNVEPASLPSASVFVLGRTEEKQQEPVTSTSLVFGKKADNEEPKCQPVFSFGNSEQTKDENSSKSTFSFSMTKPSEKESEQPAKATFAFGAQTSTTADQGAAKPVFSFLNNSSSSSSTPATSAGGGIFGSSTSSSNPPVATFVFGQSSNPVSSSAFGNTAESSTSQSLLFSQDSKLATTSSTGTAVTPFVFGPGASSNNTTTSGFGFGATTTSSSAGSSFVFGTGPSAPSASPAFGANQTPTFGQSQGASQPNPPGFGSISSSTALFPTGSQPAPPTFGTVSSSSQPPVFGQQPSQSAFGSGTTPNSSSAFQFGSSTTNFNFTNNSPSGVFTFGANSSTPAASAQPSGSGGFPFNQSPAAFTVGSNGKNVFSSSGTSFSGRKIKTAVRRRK
UniProt P52948, residues 1-880: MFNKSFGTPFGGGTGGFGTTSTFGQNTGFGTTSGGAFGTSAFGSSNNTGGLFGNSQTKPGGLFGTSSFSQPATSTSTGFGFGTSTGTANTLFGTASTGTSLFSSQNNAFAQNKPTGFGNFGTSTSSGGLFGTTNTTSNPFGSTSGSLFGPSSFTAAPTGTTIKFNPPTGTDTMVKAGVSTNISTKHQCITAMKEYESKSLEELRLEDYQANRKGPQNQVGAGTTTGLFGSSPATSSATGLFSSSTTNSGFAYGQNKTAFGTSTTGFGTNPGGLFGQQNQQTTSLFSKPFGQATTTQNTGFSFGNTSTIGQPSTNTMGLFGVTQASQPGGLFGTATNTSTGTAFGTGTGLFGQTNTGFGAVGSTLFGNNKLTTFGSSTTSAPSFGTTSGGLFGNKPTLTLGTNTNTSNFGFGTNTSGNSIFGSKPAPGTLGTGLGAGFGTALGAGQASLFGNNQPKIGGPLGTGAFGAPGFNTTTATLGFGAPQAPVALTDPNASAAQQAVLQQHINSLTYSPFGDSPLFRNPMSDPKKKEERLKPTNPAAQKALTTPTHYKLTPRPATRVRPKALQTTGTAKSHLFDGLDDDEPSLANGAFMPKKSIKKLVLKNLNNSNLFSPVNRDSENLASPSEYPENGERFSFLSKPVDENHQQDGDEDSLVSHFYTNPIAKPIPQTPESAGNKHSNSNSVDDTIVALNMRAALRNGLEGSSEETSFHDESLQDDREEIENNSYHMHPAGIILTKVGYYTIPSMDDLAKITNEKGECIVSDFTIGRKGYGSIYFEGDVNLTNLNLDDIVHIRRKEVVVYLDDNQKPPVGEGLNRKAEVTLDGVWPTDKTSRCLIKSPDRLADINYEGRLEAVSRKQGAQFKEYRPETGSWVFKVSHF

What was measured:
[1] = target: T1, nuclear RNA export factor-1 (NXF1), endogenous in DLD-1 cells (human (endogenous in DLD-1)) (UniProt Q9UBU9); assay: proximity ligation; DLD1-HA-AID-GANP cells; anti-HA (GANP) and NXF1 antibodies
T1 sequence: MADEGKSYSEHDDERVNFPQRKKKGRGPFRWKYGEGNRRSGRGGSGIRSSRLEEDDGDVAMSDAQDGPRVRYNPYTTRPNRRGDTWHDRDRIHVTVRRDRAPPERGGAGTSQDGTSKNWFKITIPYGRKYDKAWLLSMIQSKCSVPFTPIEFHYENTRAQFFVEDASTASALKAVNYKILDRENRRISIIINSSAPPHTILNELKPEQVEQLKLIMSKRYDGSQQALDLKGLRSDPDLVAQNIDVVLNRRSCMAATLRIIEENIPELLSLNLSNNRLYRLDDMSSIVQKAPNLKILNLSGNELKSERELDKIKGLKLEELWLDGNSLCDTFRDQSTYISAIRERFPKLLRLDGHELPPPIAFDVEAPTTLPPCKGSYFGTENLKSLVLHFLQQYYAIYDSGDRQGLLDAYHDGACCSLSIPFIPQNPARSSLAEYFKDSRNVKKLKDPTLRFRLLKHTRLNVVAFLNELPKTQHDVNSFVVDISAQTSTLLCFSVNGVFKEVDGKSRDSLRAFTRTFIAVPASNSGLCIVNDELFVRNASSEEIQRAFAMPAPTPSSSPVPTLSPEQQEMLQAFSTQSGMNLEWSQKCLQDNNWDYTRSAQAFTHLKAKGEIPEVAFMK

GST-NXT1•His-NXF1 = target: T2, GST-NXT1•His-NXF1 (UniProt Q9UBU9); assay: pull-down; competition: 2 μM GST–NXT1•His–NXF1 (or GST) with 25 μl NUP98 or NUP153 transcription–translation reaction on GSH beads, 1 h RT, washed with TBS-T, then 2 and 8 μM His-NS1-BP, 1 h RT; Western blot; only the target purified
T2 sequence 1: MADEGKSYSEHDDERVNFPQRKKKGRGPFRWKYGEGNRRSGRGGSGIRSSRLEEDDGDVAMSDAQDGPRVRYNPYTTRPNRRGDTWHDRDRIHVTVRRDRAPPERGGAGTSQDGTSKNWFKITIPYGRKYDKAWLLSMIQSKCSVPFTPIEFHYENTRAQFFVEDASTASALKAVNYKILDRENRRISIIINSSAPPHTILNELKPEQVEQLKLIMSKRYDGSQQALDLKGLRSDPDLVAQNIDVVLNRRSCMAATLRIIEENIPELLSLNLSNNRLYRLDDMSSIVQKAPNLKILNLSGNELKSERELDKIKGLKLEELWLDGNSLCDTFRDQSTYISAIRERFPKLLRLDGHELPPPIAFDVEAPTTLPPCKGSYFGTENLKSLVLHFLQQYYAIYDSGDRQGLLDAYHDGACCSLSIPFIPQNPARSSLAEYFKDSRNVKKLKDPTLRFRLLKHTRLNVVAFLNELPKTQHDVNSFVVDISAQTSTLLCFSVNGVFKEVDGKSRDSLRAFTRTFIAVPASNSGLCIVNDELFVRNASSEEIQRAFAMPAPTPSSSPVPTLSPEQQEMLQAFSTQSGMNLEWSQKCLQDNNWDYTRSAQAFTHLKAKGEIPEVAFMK
T2 sequence 2: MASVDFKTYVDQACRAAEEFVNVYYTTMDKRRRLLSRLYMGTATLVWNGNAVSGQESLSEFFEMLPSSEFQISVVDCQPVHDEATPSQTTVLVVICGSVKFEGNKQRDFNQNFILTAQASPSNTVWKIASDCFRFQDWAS

3XFlag-NS1-BP (human) = target: T3, 3XFlag-NS1-BP (human) (UniProt Q9Y6Y0); assay: co-IP
T3 sequence: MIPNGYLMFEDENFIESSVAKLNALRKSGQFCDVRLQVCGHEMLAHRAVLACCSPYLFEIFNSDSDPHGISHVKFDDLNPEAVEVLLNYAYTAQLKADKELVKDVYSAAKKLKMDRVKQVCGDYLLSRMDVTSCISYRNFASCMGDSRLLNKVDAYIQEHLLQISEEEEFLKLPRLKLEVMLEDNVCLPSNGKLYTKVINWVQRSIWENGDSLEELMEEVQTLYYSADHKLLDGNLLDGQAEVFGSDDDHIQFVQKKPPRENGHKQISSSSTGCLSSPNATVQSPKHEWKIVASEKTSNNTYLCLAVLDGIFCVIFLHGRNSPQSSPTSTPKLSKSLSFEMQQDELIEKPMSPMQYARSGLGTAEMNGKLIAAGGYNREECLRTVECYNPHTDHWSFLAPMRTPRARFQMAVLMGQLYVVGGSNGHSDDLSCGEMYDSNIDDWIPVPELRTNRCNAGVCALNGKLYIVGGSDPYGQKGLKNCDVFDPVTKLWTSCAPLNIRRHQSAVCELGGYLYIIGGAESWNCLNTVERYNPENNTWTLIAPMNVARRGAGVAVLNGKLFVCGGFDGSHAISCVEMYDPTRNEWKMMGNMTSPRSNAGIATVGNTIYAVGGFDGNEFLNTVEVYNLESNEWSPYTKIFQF

[2] = target: T4, GST-NS1-BP (BTB-BACK) (human) (UniProt Q9Y6Y0); assay: pull-down; GST, GST-NS1-BP or GST-NS1-BP domains immobilised on GSH beads; 1 μM His–NXF1•NXT1; 20 mM Tris, 150 mM NaCl, 1 mM DTT, 1 mM EDTA, pH 7.5; room temperature, 30 min; NXF1 detected by Western blot; both purified
T4 sequence: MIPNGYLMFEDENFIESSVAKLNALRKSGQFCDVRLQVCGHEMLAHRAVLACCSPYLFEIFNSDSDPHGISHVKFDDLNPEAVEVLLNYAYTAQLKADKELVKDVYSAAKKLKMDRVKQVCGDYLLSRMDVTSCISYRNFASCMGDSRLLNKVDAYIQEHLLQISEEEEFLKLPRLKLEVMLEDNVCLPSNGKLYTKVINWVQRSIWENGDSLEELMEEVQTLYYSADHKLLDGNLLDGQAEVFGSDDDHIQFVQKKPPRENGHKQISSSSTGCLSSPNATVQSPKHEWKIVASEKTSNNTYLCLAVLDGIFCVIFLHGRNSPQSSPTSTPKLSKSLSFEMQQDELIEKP

[3] = target: T5, GST-NS1-BP (Kelch) (human) (UniProt Q9Y6Y0); assay: as above
T5 sequence: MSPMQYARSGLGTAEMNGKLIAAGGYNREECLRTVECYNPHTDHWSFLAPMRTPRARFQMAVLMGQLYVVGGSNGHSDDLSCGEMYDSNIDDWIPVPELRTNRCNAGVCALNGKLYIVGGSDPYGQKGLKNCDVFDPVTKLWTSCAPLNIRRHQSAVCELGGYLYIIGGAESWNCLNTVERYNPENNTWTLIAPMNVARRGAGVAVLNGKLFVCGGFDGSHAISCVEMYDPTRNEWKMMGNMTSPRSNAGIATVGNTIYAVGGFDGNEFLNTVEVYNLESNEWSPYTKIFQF

[4] = target: T6, GST-NS1-BP (full length) (human) (UniProt Q9Y6Y0); assay: as above
T6 sequence: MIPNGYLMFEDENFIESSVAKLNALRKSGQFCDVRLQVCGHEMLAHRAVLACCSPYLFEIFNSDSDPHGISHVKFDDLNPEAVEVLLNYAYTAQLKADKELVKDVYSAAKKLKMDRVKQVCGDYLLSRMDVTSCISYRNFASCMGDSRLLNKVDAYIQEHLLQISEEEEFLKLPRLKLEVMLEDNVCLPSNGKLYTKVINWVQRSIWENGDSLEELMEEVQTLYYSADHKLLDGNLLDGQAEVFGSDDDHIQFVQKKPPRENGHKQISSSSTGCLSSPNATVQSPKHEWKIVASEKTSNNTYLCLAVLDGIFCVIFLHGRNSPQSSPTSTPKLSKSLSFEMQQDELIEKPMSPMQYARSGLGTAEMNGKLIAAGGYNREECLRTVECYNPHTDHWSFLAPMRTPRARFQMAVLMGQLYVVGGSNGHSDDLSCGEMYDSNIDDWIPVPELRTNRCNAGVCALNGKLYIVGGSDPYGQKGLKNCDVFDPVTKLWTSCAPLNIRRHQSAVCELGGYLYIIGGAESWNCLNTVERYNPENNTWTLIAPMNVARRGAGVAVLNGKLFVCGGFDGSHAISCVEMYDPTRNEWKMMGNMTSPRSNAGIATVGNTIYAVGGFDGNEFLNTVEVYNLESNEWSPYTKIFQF

Molecule: HA-AID-GANP (germinal center–associated nuclear protein) (from UniProt O60318 1-1980)
- binding [1]: binds

Molecule: Flag-NUP153 (from UniProt P49790 1-1475)
- binding (GST-NXT1•His-NXF1): binds

Molecule: Myc-NUP98 (from UniProt P52948 1-880)
- binding (GST-NXT1•His-NXF1): binds

Molecule: nucleoporin Nup98, endogenous (from UniProt P52948 1-880)
- binding (3XFlag-NS1-BP (human)): no binding

B1: His-NXF1-NXT1 (complex, UniProt Q9UBU9 1-619; Q9UKK6 1-140)
chain 1: MADEGKSYSEHDDERVNFPQRKKKGRGPFRWKYGEGNRRSGRGGSGIRSSRLEEDDGDVAMSDAQDGPRVRYNPYTTRPNRRGDTWHDRDRIHVTVRRDRAPPERGGAGTSQDGTSKNWFKITIPYGRKYDKAWLLSMIQSKCSVPFTPIEFHYENTRAQFFVEDASTASALKAVNYKILDRENRRISIIINSSAPPHTILNELKPEQVEQLKLIMSKRYDGSQQALDLKGLRSDPDLVAQNIDVVLNRRSCMAATLRIIEENIPELLSLNLSNNRLYRLDDMSSIVQKAPNLKILNLSGNELKSERELDKIKGLKLEELWLDGNSLCDTFRDQSTYISAIRERFPKLLRLDGHELPPPIAFDVEAPTTLPPCKGSYFGTENLKSLVLHFLQQYYAIYDSGDRQGLLDAYHDGACCSLSIPFIPQNPARSSLAEYFKDSRNVKKLKDPTLRFRLLKHTRLNVVAFLNELPKTQHDVNSFVVDISAQTSTLLCFSVNGVFKEVDGKSRDSLRAFTRTFIAVPASNSGLCIVNDELFVRNASSEEIQRAFAMPAPTPSSSPVPTLSPEQQEMLQAFSTQSGMNLEWSQKCLQDNNWDYTRSAQAFTHLKAKGEIPEVAFMK
chain 2: MASVDFKTYVDQACRAAEEFVNVYYTTMDKRRRLLSRLYMGTATLVWNGNAVSGQESLSEFFEMLPSSEFQISVVDCQPVHDEATPSQTTVLVVICGSVKFEGNKQRDFNQNFILTAQASPSNTVWKIASDCFRFQDWAS
- binding [2]: binds
- binding [3]: binds
- binding [4]: binds
